The list shows a part of the results, in another mix than the full data. Calls are pooled over several reports, among them a noisy single-well screen.

By UniProt entry, the sequences of proteins in these tests, tags left out. Chains listed by the source or under a name are the forms on record and can include a tag or linker.
UniProt Q924X8, as listed by the source: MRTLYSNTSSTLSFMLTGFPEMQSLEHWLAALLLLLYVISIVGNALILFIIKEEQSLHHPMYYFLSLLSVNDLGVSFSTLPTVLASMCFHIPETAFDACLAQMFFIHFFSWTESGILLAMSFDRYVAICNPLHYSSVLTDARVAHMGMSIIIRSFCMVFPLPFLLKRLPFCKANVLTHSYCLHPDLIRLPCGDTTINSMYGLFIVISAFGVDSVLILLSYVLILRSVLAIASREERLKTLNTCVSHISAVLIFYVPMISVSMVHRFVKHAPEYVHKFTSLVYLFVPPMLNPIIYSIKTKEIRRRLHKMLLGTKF

For the assay, the target named is UniProt Q924X8. The conditions noted are these: stereoisomer not certain. The essentials: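 Each receptor–molecule pair is labelled responsive or non-responsive (inactive) according to whether the original authors judged the measured signal statistically different from baseline. The data were taken from the main text and supplementary material of published papers and checked for typos and inconsistencies. Assay methods differed by source, with transient luciferase assays in mammalian cell lines being common.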
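Also: active if original authors judged signal statistically different from baseline.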

For the molecule `CCCCCC(=O)O`, the “odorant receptor agonist call” value was “inactive”.
For the molecule `CCCC(=O)O`, the “odorant receptor agonist call” value is “inactive”.

(Values after the M2OR odorant receptor database.)
